# Measurements reported in PubChem BioAssay AID1259274 (Sanger Institute, 2017)
# Screen: 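Kinases RKO cells need to grow, alone or with anchor drugs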 (primary screen)
# Cells: human RKO colorectal cancer cells
# Reagent: siRNA pool against human genes
# Treatment: anchor drugs BYL719 at 1 µM, cetuximab at 5 µg/ml or trametinib at 10 nM; DMSO vehicle as the no-drug arm
# Read-out: 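Viability of cells versus control pool 2 (non-targeting) averaged across replicates; knock-down-only robust z-score; for every anchor drug (BYL719, cetuximab, trametinib) a synergy score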
# Direction: viability z-score, siRNA alone: higher = more viable cells; low values mean essential gene; viability, siRNA alone, vehicle: higher = more viable cells; synergy score with BYL719 and synergy score with Trametinib: higher = stronger combined killing with the drug
# Hit rule: 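Essential when the robust viability z-score with siRNA only falls below -3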
# Meaning of the calls: active = essential when knocked down alone; inactive = no change alone
# The deposit covers 794 reagents; below is an unselected part. 11 of all reagents (1.4%) were called active. 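Calls rest on knock-down without drug only; synergy scores with anchor drugs were not used for the essential call.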 A number with no mark means an inactive call. No viability above 1 is reported: the scale is capped. Not all columns of the deposit are shown. Reagent sequences are not shown. Not given: the amount of reagent, the time to read-out.
target gene,"viability z-score, siRNA alone","viability, siRNA alone, vehicle (fraction of control)",synergy score with BYL719,synergy score with Trametinib
NAGK,-1.47,0.772,-0.0718,-0.057
CDKN2D,-0.0249,0.896,-0.0542,0.0316
MAPKAPK2,0.359,0.929,0.0151,-0.0479
PRKG1,0.915,0.976,-0.0652,-0.176
VRK1,-0.369,0.866,-0.205,-0.116
DMPK,-0.553,0.851,-0.0732,-0.119
HCK,0.0042,0.898,-0.111,-0.241
CNOT1,-0.901,0.821,-0.00966,-0.108
PAPSS1,1.19,1,-0.128,-0.211
STKLD1,0.737,0.961,-0.0477,-0.091
RIPK4,0.483,0.939,0.00134,-0.134
PRPS2,0.0119,0.899,-0.132,-0.228
POLR2B,-4.86 (active),0.482,-0.0393,-0.0461
STK31,0.199,0.915,-0.0356,-0.184
PKLR,0.933,0.978,-0.0822,-0.145
GCK,0.46,0.937,0.0295,-0.0783
MAP3K6,-0.227,0.879,-0.0867,-0.166
TRIB2,1.12,0.994,-0.105,-0.165
GSK3A,0.442,0.936,-0.0444,-0.127
ALPK3,1.19,1,-0.00355,-0.0496
TESK1,0.895,0.975,0.00457,-0.116
CAMK1D,1.05,0.988,-0.0367,-0.186
PI4KA,0.338,0.927,-0.18,-0.274
MAPK9,-0.011,0.897,-0.0859,-0.142
AXIN2,-0.102,0.889,-0.0867,-0.198
AXL,1.19,1,-0.0397,-0.0372
YES1,-1.35,0.783,-0.197,-0.226
EPHA8,-0.718,0.837,-0.219,-0.35
PIP4K2B,0.506,0.941,-0.0428,-0.113
ATRX,-0.364,0.867,-0.152,-0.273
CSNK2A1,0.649,0.954,0.0188,-0.193
STK3,-0.73,0.836,-0.00909,-0.195
DAPK1,0.791,0.966,0.0261,-0.0638
DBF4,1.19,1,-0.154,-0.262

Laid out differently: 3 of the entries above.
| target gene | viability z-score, siRNA alone | viability, siRNA alone, vehicle (fraction of control) | synergy score with BYL719 | synergy score with Trametinib |
| --- | --- | --- | --- | --- |
| CAMK1D | 1.05 | 0.988 | -0.0367 | -0.186 |
| PI4KA | 0.338 | 0.927 | -0.18 | -0.274 |
| MAPK9 | -0.011 | 0.897 | -0.0859 | -0.142 |
